Measurements reported in PubChem BioAssay AID1224826 (NIAID, 2016)
Aim: 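Knock-downs that raise or lower Tnf reporter signal after endotoxin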 (primary screen). Cell system: RAW264.7 G9 macrophages from mouse bearing reporters for p65 (GFP) and the Tnf promoter (mCherry). Knock-down reagent: siRNA pool against mouse genes, 100 nM. Time to read-out: 16 h of LPS stimulation, after 2 days of siRNA transfection. Challenge: bacterial lipopolysaccharide (Salmonella minnesota R595), 10 ng/ml. Measured: 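Nuclear mCherry signal of the Tnf promoter reporter measured by imaging after background removal, scaled to each plate median and turned into robust z-scores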. Scale: Tnf reporter robust z-score: higher = stronger Tnf promoter reporter signal after LPS; Tnf reporter intensity: higher = stronger Tnf promoter reporter signal. Hit rule: 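Called active when robust z-score is at most -1.3, matching the median of the Tlr4 knock-down control, or over 3; control wells and wells with under 50 cells never active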. Calls: active = Tnf reporter clearly lowered or raised; inactive = no clear change in Tnf reporter.
Here is a random part of about 17,000 deposited reagents. Over the whole deposit, about 1,110 (6.6%) are marked active. 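Active means lowered or raised reporter signal; replicate intensities are raw and not normalised per plate.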 Entries without a mark were called inactive. The numbers tell different reagents against one gene apart. Reagent sequences are not shown.

gene,reagent no.,Tnf reporter robust z-score,fewer than 50 cells in well,"Tnf reporter intensity, replicate 1","Tnf reporter intensity, replicate 2"
Syngr4,1,1.04,enough cells in well,225,68.4
Mthfs,1,-0.92,enough cells in well,178,60.8
D630029K05Rik,1,-0.36,enough cells in well,169,139
Sos1,1,0.25,enough cells in well,329,210
Tal1,1,-0.28,enough cells in well,213,120
Dcp1a,1,0.03,enough cells in well,257,216
Trim54,1,-0.31,enough cells in well,128,101
Kdm5b,1,-0.14,enough cells in well,205,160
Pgc,1,-0.46,enough cells in well,78.7,110

Continued (3 carried over from the part before).
gene,reagent no.,Tnf reporter robust z-score,fewer than 50 cells in well,"Tnf reporter intensity, replicate 1","Tnf reporter intensity, replicate 2"
Trim54,1,-0.31,enough cells in well,128,101
Kdm5b,1,-0.14,enough cells in well,205,160
Pgc,1,-0.46,enough cells in well,78.7,110
Npepl1,1,-1.3 (active),enough cells in well,127,66.9
Nap1l4,1,0.04,enough cells in well,136,159
Ctf1,1,-1.4 (active),enough cells in well,99.8,131
Cdkal1,1,-0.58,enough cells in well,137,136
Mri1,1,-0.12,enough cells in well,190,67.7
Fancd2,1,0.38,enough cells in well,311,201
Rab3il1,1,-0.09,enough cells in well,284,210
Rab3il1,2,2.28,enough cells in well,276,333
Tnfsf8,1,-0.68,enough cells in well,161,115
Arhgap10,1,1.43,enough cells in well,272,226
4833432P19Rik (retired record),1,0.5,enough cells in well,199,80.3
F2r,1,-0.2,enough cells in well,187,300
Tnpo1,1,-0.09,enough cells in well,225,130
Trim37,1,-0.24,enough cells in well,192,234
Tal2,1,1.05,enough cells in well,321,178
